This experiment can be described thus: qHTS Assay for Lipid Storage Modulators in Drosophila S3 Cells.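 As to cell number change: cells counted by Cell Tracker Red CMTPX staining in the red channel.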 To be noted: BODIPY lipid droplet fluorescence, 18-24 h; for cell number change: measured here: cell count max response, cells fed with added oleic acid. A digest of the protocol:
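Drosophila S3 cells got compounds at several concentrations plus oleic acid (400 uM solution). Laser-scanning cytometry with 488 nm excitation read lipid droplets at 500-530 nm and cells at 575-640 nm. Percent activity was relative to 20 uM Triacsin C.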

The mark [1] stands for this setting: measured here: lipid fluorescence (Fed channel) AC50, cells fed with added oleic acid.
Setting [2] is: measured here: cell number channel AC50, cells fed with added oleic acid.

Some of the results follow. The main result of the screen is listed elsewhere. These columns were measured beside it and carry no call. Most of these compounds were active or inconclusive in the main read-out, so they are no random draw. Potencies come from curve fits of mixed quality, noted in brackets.

As to `NC(=O)COc1ccc(C2c3c(oc4ccccc4c3=O)C(=O)N2CC2CCCO2)cc1` (configuration not stated), the cell number change amounted to 10.6%. For the same compound, under setting [1], the AC50 (as a rule, the midpoint of the concentration-response curve, whichever way the signal moves) is 29.1 µM [rising, single point].

Turning to `O=C(c1ccco1)N1CCN(Cc2cccnc2)CC1`, the cell number change is 45.5%. Also, the AC50 under setting [2] was 29.1 µM [rising, single point]. Under setting [1], the AC50 was 29.1 µM [rising, single point].

As to `CCN(CC(N)=O)S(=O)(=O)c1ccc(Br)cc1`, the cell number change was -144%. Also, the AC50 under setting [2] is 11.6 µM [falling, partial curve]. In addition, the AC50 under setting [1] was 29.1 µM [falling, single point].

Take `CCn1c(CSc2ncccn2)nnc1SCC(=O)N1c2ccccc2CC1C` (configuration not stated): under setting [2], the AC50 is 0.58 µM [rising, single point].

For the compound `O=C(OCC(=O)N1CCc2ccccc21)C1=COCCO1`, the AC50 under setting [1] was 0.00731 µM [falling, full curve, poor fit].

Regarding `CCc1nnc(NC(=O)CSc2nnc(-c3cccnc3)n2CCc2ccccc2)s1`, the cell number change turned out to be 18.1%. The AC50 under setting [1] was 8.2 µM [rising, partial curve].

`CCOc1ccccc1C(=O)NCC(=O)N(C)Cc1cccnc1`: the cell number change was -21.4%. The AC50 under setting [1] is 29.1 µM [rising, single point].

`O=C(CSc1cccc[n+]1[O-])N1CCCCCC1`: the cell number change stood at 26%.

On to `COc1ccc(NC(=O)Nc2ccc(Cc3ccncc3)cc2)cc1OC`, for which the cell number change amounted to 26.1%. Further, the AC50 under setting [1] is 0.231 µM [rising, full curve].

As to `COc1cc(NC(=O)c2ccccc2F)ccc1NC(=O)c1ccccc1Cl`, the AC50 under setting [2] was 0.461 µM [rising, full curve, poor fit].

Consider `COc1ccc(-n2nnc3c(=O)n(CC(=O)N4CCC(C)CC4)cnc32)cc1`, for which the cell number change was found to be 44.9%. Moreover, under setting [2], the AC50 was 10.3 µM [rising, partial curve, poor fit].

In the case of `COc1ccc(-c2cc(C(=O)N3CC4(C)CC3CC(C)(C)C4)no2)cc1` (configuration not stated), the cell number change was -27.2%.

On to `CCOC(=O)c1ccc(-n2c(-c3ccco3)nc3ccccc3c2=O)cc1`, for which the cell number change is -9.15%. For the same compound, the AC50 under setting [1] is 2.91 µM [rising, partial curve].

As to `CCOC(=O)N1CCC(NC(=O)Cn2nc(-c3ccccc3)ccc2=O)CC1`, the cell number change was 7.75%. Moreover, the AC50 under setting [1] was 6.51 µM [falling, single point].

Turning to `CC(C)OC(=O)c1c(-c2ccc(C(C)C)cc2)csc1NC(=O)C1CCCO1` (configuration not stated), the cell number change is -39.9%. The AC50 under setting [2] is 9.2 µM [falling, partial curve, poor fit]. In addition, the AC50 under setting [1] was 0.0517 µM [falling, full curve, poor fit].

For `CCOC(=O)N1CCN(C(=O)C2CCN(S(=O)(=O)c3ccc(Br)s3)CC2)CC1`, the cell number change came to 21.4%. The AC50 under setting [2] was 3.66 µM [rising, single point].

`C=CCN1C(=O)SC(Cc2cccc(OC)c2O)C1=O` (configuration not stated): the cell number change was 33.7%. For the same compound, the AC50 under setting [2] is 0.00411 µM [rising, full curve, poor fit].

Regarding `CC(C)Sc1n[nH]c(=O)n1-c1ccccc1`, the cell number change is -9.13%. In addition, the AC50 under setting [1] is 3.66 µM [falling, single point].

Take `CCCCC(CCC(=O)Nc1cc([N+](=O)[O-])ccc1O)C(=O)O` (configuration not stated): the cell number change amounted to 26.2%.

In the case of `Cc1[nH]c(=O)c(S(=O)(=O)c2ccccc2)c(C)c1Cl`, the cell number change was -7.75%. Further, the AC50 under setting [2] was 2.31 µM [falling, partial curve].

With `COc1ccccc1OCC(O)Cn1c(=N)n(Cc2ccccc2)c2ccccc21` (configuration not stated), the cell number change was -76.1%. Also, the AC50 under setting [2] is 3.66 µM [falling, full curve]. The AC50 under setting [1] is 29.1 µM [falling, single point].

In the case of `CCO[C@H]1OC(C(=O)N2CCN(Cc3ccc4c(c3)OCO4)CC2)=C[C@@H](C2CCCCC2)[C@@H]1CCCO`, the cell number change was -20.6%. Moreover, the AC50 under setting [1] is 32.6 µM [falling, single point].

Regarding `COc1ccc(CNC(=O)CCS(=O)(=O)Cc2cccc(Cl)c2)c(OC)c1`, the cell number change was -7.44%. Moreover, the AC50 under setting [1] was 6.51 µM [rising, single point].

For the compound `CC(C)(C)OC(=O)N1CCC(CC2CC(c3ccc(Cl)cc3)=NO2)(C(=O)NCC2CCCCC2)CC1` (configuration not stated), the cell number change is 39.8%. For the same compound, the AC50 under setting [2] was 2.06 µM [rising, partial curve, poor fit]. In addition, under setting [1], the AC50 was 3.66 µM [falling, full curve].

Take `O=C(CCC(=O)c1ccc(F)cc1)Nc1cc(Cl)cc(Cl)c1`: the cell number change amounted to 31.9%. For the same compound, the AC50 under setting [2] is 0.259 µM [rising, full curve].

As to `O=C(O)c1ccc(CSc2nnc(-c3ccccc3)n2-c2ccccc2)cc1`, the cell number change is -35.9%. Moreover, the AC50 under setting [2] is 7.31 µM [falling, partial curve, poor fit]. Further, the AC50 under setting [1] was 6.51 µM [falling, full curve, poor fit].

As for `O=[N+]([O-])c1ccc(/C=N/n2c(C3CCCCC3)n[nH]c2=S)cc1`, the cell number change was -0.297%. Besides, the AC50 under setting [2] is 0.82 µM [rising, full curve]. Moreover, the AC50 under setting [1] was 0.103 µM [falling, full curve, poor fit].

As for `Cc1cc(/C=C2\SC(=S)NC2=O)c(C)n1-c1ccc(O)cc1`, the cell number change came to 9.99%. For the same compound, the AC50 under setting [1] is 0.092 µM [rising, full curve, poor fit].

Turning to `Cc1ccc2nc(NC(=O)c3ccc4ncsc4c3)sc2c1`, the cell number change is -50.8%. Besides, the AC50 under setting [2] is 16.4 µM [falling, single point]. Moreover, under setting [1], the concentration at half-maximal activity (AC50) was 18.4 µM [falling, single point].

Take `O=C(N/N=C/c1ccc2cccc(OCc3ccccc3)c2n1)c1ccc(Cl)cc1`: the AC50 under setting [2] is 0.58 µM [rising, full curve].

Take `COc1ccc(CCNC(=O)c2cccc(S(=O)(=O)N3CCCCC3)c2)cc1`: the cell number change was 19.4%. Further, the AC50 under setting [2] is 0.00461 µM [rising, full curve, poor fit]. Also, the AC50 under setting [1] was 0.00461 µM [rising, full curve, poor fit].

As to `COc1ccc(C(=O)C[n+]2cccc3cc(OC)ccc32)cc1`, under setting [2], the AC50 was 2.59 µM [rising, partial curve, poor fit].

As to `N#Cc1ccc[n+](CC(=O)c2ccc(Cl)cc2)c1`, the cell number change is -0.552%.

In the case of `Cc1ccc(C)c(OCCCC(=O)Nc2ccc(N3CCOCC3)cc2)c1`, the cell number change is 105%. In addition, the AC50 under setting [2] was 20.6 µM [rising, single point].

As for `COc1cccc(OC)c1C(=O)Nc1ccc([N+](=O)[O-])cn1`, the cell number change is -8.76%. For the same compound, the AC50 under setting [2] was 2.91 µM [rising, single point].

Take `Cc1c(C(=O)N2CCN(C(=O)c3ccco3)CC2)sc2nc(-c3ccc(F)cc3)cn12`: the AC50 under setting [2] is 0.651 µM [rising, full curve].

As for `Cc1ccc(OCC(=O)N2CCC(N3CC(C)CC(C)C3)CC2)cc1` (configuration not stated), the cell number change is 19.1%. The AC50 under setting [1] was 0.092 µM [rising, full curve, poor fit].

As to `O=C(COc1ccccc1[N+](=O)[O-])Nc1cccc(Cl)c1N1CCOCC1`, the cell number change was -31%. For the same compound, the AC50 under setting [2] is 23.1 µM [falling, single point]. In addition, the AC50 under setting [1] is 14.6 µM [falling, partial curve, poor fit].

For the compound `CC(=O)c1cc(CN2CCC(n3nccc3NC(=O)c3ccccc3)CC2)cs1`, the AC50 under setting [1] was 4.11 µM [rising, single point].

Take `Cc1nnc(NC(=O)c2cc(-c3ccncc3)nc3c(C)cccc23)s1`: the cell number change was 23.8%. Moreover, the AC50 under setting [1] was 6.51 µM [falling, single point].

As for `CCN(CC)CCNc1ccc2nnc(CCNS(=O)(=O)c3ccc(C)cc3)n2n1`, the cell number change was -10.3%. For the same compound, the AC50 under setting [1] was 0.146 µM [falling, full curve, poor fit].

With `O=C(Nc1cccc(-c2nnc(-c3ccco3)o2)c1)C(c1ccccc1)c1ccccc1`, the cell number change was 108%. Further, the AC50 under setting [2] is 13 µM [rising, partial curve].

Take `COc1ccc(OC)c(NC(=O)CSc2sc3c(O)cc(=O)[nH]c3c2C#N)c1`: the cell number change is 8.97%.

Regarding `O=CN1N=C(c2ccccc2)CC1c1ccccc1[N+](=O)[O-]` (configuration not stated), the cell number change was -50.7%. Also, the AC50 under setting [2] is 0.164 µM [falling, full curve, poor fit]. Besides, the AC50 under setting [1] is 3.66 µM [rising, full curve, poor fit].

For the compound `O=C(Nc1ccc(N2CCN(C(=O)c3ccco3)CC2)cc1)c1ccc([N+](=O)[O-])cc1Cl`, the cell number change is -12.2%. Under setting [1], the AC50 is 1.16 µM [rising, partial curve].

In the case of `Cc1ccc(CNC(=O)C2CCN(S(=O)(=O)N3CC(C)CC(C)C3)CC2)cc1` (configuration not stated), the AC50 under setting [1] is 0.116 µM [falling, single point].

In the case of `O=C(O)c1cc(C2CC2)nc2ccccc12`, the cell number change was 34.1%. The AC50 under setting [2] was 0.731 µM [rising, full curve, poor fit]. Also, the AC50 under setting [1] was 0.651 µM [rising, full curve, poor fit].

In the case of `COc1ccc(OCCC(=O)c2ccc(OC)cc2)cc1`, the cell number change was 12.4%.

On to `Cc1c(C(=O)N2CCc3ccccc3C2)oc2ccc(S(=O)(=O)N3CCCCCC3)cc12`, for which the cell number change worked out at 24.6%. The AC50 under setting [1] was 3.26 µM [rising, full curve].

In the case of `Cc1csc(=O)n1CCC(=O)OCC(=O)NCc1ccc(Cl)cc1Cl`, the cell number change is -5%.

Regarding `CC(=O)Oc1ccc(C)cc1N1C(=O)c2ccc(C(=O)O)cc2C1=O`, the cell number change was 18.1%. The AC50 under setting [1] was 0.731 µM [rising, partial curve, poor fit].

For the compound `O=C(CCS(=O)(=O)c1cccs1)Nc1ccc(C(=O)NC2CCN(Cc3ccccc3)CC2)cc1`, the cell number change was -21.7%. In addition, the AC50 under setting [2] is 2.31 µM [falling, partial curve, poor fit]. Under setting [1], the AC50 was 6.51 µM [falling, single point].

With `Cc1ccccc1Oc1ncnc2oc(-c3ccccc3)cc12`, the cell number change came out at 46.3%. Also, the concentration at half-maximal activity (AC50) under setting [2] was 29.1 µM [rising, single point]. Also, the AC50 under setting [1] was 6.51 µM [rising, single point].

On to `CCCc1cc(=O)oc2cc(OCC(=O)Nc3cc(C)on3)ccc12`, for which the cell number change was 15.5%. In addition, the AC50 under setting [1] is 32.6 µM [rising, single point].

For `NC(=O)C1CCN(C(=O)c2cnn(-c3ccccc3)c2NC(=O)c2ccco2)CC1`, the cell number change turned out to be 18.9%.

For `O=C(O)CC(CNS(=O)(=O)c1cccc2nsnc12)c1ccccc1` (configuration not stated), the cell number change is -26%. Further, under setting [1], the AC50 was 29.1 µM [falling, single point].

As to `CC(=O)Nc1ccc(S(=O)(=O)N2CCC(C(=O)NCCC(=O)Nc3ccccc3)CC2)cc1`, the cell number change is -4.89%.

On to `NC1=NC(c2ccccc2C(F)(F)F)N(c2ccc(F)c(Cl)c2)C(N)=N1` (configuration not stated), for which the cell number change was -17%.

The values above are taken from PubChem BioAssay AID2685 (National Center for Advancing Translational Sciences (NCATS), 2010).
